From PubChem BioAssay AID1347423 (Functional Genomics Laboratory (NCATS/FGL), 2020)
Hit rate of the full screen: of about 52,000 sequences, about 210 (0.4%) were called active.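 The calls were made as follows: active = gene whose silencing raises cell survival under the drug, median off-target-corrected z-score across its silencing RNAs 2 or more; inactive = the rest.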 Some of the results follow.

Assay: Resistance to Poly (ADP-Ribose) Polymerase inhibitor: Gene Identification via Genome-wide siRNA Screen
Settings: mouse BRCA2 R2336H ES cells, olaparib, CellTiter-Glo viability; active compounds read high
Source text: The role of Poly (ADP-Ribose) Polymerase (PARP) proteins in DNA repair has been elegantly utilized for the synthetic lethality-based treatment of BRCA-deficient tumors by PARP inhibitors. PARP inhibitors are now being used for treatment of BRCA-deficient breast and ovarian cancers. […] While several mechanisms of drug resistance have been identified, majority of these tumors develop drug resistance due to unknown causes. To identified novel regulators of chemo-resistance in BRCA2-mutated cells, we performed a genome wide siRNA library screen. We have found ES cells expressing a hypomorphic allele of BRCA2 to be hypersensitive to PAPP inhibitors (such as olaparib). We used ES cells expressing a mutant allele of BRCA2 that has a single amino acid substitution at position 2336 (arginine to histidine, R2336H). The screen was conducted using an Ambion (Thermo) Silencer Mouse Genome siRNA collection. The library targets 17,575 mouse genes with 3 siRNAs per gene. TET2 (E130014J05Rik) was identified as a top candidate.
Transfections were performed in 384 well plates (Corning 3707). Plates were coated with 0.1% gelatin in H2O overnight at ambient temperature. Gelatin solution was aspirated (BioTek EL406) and siRNAs were printed using a Bravo VPrep liquid handler integrated within a BioCel automation platform (Agilent). Cell viability was measured using CellTiter Glo (Promega). For transfections, […] of serum free media containing Lipofectamine RNAiMax […] was added to wells containing siRNA (0.8pmol). Lipid and siRNA were allowed to complex for 45 min at ambient temperature before addition of 1000 cells in DMEM, 30% FBS to yield final transfection mixtures containing 20 nM siRNA in DMEM, 15% FBS. PARPi (olaparib, AZD2281) was added 48 h post-transfection (500 nM) and viability (CellTiter Glo, Promega) was assayed 72 h later on a PerkinElmer Envision 2104 Multilabel plate reader. Ambion Silencer Select Negative Control #2 was incorporated on all screening plates (16 wells) and the median negative control value on each plate was used for normalization. An siRNA targeting Trp53 was used as a positive control. This control yielded a median protective effect of ~1.9 fold versus negative control throughout the screen. The median absolute deviation (MAD) based z-score was calculated for each siRNA. Genes were then ranked by taking the median value for all siRNAs tested against a given gene. Scores were also adjusted for seed-based off-target effects to help deprioritize likely false positives.

Sequence	z-score
GCUCUGUUAUAGCCAUGGUTT against Spib	inactive: -0.978
GGCUUUGAAUUUCUAAGACTT against Olfr125	inactive: -0.0462
GGUAGCUUACAAACCAUCATT against Map3k7ip1	inactive: -0.689
GGAAUACACUCAAUAUUGATT against Nupl1	inactive: -1.17
CGCGCAAUGCUCCUUUGAGTT against Retnlb	inactive: -0.283
GUCAAAAUGACCAAAGAUGTT against Mte1	inactive: 0.106
GGUAGCUGUUUAGGACAAUTT against Arl6ip5	inactive: -1.38
GCAGGAUUAUUUGUCACUUTT against Lims2	inactive: 0.73
GGAAAUCCUCAACUUCAUUTT against Cyp2b13	inactive: -0.433
GGACCAAGUGGAGAAAGAATT against Nkx6-1	inactive: -2.76
GGAAAGGAAUCCAAAAAUCTT against Lias	inactive: 1.44
GAUAAUGGUCACUAAAUCUTT against V1rc21	inactive: -0.418
GGCCUUCCGCAUUUUAUCATT against A530054K11Rik	inactive: 0.635
GGAGAUUUGUUGUUAAGGGTT against Pcdhb2	inactive: -0.669
GGACCUGACCUACUCGUGUTT against Rxrb	inactive: 0.714
GAAGCAGAUACCAAAACAATT against Kir3dl1	inactive: -0.506
GGAAAGUGUGGUGACUUCATT against Olfr860	inactive: -2.78
CCAACUCUAAUAAUAACAGTT against BC014805	inactive: -1.38
GGACCACCAAGAGGAAGUGTT against F730004D16Rik	inactive: 0.219
GGAUCUUCAGGUUCUGAUGTT against 2010311D03Rik	inactive: -0.019
GGCCCUACAAACUAUUAACTT against Impa2	inactive: 0.885
CGCACUGAAGGGAUGCGAUTT against Dyrk2	inactive: 0.664
CCCUCAAAACCUUAAUGGGTT against B3galt1	inactive: -0.053
CCGACUAUCUAUCUACUGATT against Agxt2	inactive: 0.185
CCCAGCUAGACAGUCUUUCTT against Il11	inactive: -0.86
GCUUCUUCCUUAGAUGGCATT against Kcnb1	inactive: 0.224
GUUCAAGACGGAGAAGAGGTT against Gpr27	inactive: 0.961

As entered above:
Value of GCAGGAUUAUUUGUCACUUTT against Lims2 under z-score: inactive: 0.73
Value of GGAGAUUUGUUGUUAAGGGTT against Pcdhb2 under z-score: inactive: -0.669
Value of CGCACUGAAGGGAUGCGAUTT against Dyrk2 under z-score: inactive: 0.664
Value of GGACCAAGUGGAGAAAGAATT against Nkx6-1 under z-score: inactive: -2.76

2 successive records already listed:
Sequence	z-score
GGUAGCUUACAAACCAUCATT against Map3k7ip1	inactive: -0.689
GGAAUACACUCAAUAUUGATT against Nupl1	inactive: -1.17

Later entries.

Sequence	z-score
GCAUCUGAAAAUCCUCAACTT against Cxcl12	inactive: -0.198
CGGGCAUUAAGGUAUGGAATT against A630024J02Rik	inactive: -0.39
GCUAUGUGUACAGCUGCUGTT against V1rd2	inactive: -1.09
GGCUAUCUUCAAUAUACUGTT against Lamp3	inactive: 0.254
GCAGUAUACUUUUGUGAAUTT against Plxna2	inactive: -0.711
GGCAAACAUGGAAUACACCTT against Gabrd	inactive: 0.249
GGUCAAUGGAAUGAAAACCTT against Ptprc	inactive: 0.0693
UCAUCGUACCCAUUCCCAATT against Manbal	inactive: 2.23
GGCCUAUGGAUUUGACUUCTT against Mrpl28	inactive: 0.327
GGAAAGGAAAAUCAACUUCTT against Usp14	inactive: 0.59
GGGAUUUGUUGUCUAAGAUTT against Mapk10	inactive: 0.0938
GGCACUUUGUUCUAGCAGCTT against Pcdhb21	inactive: 0.341
GGUAAUAUUUCGUGCUUUATT against Lamb1-1	inactive: 0.769
CCUACUGCAUUAAAAAACUTT against Lactb2	inactive: 2.1
GGAGACUGGAGCUUCAUCUTT against Edg4	inactive: 0.0141
GCACAGUCACUAGCUGAAUTT against 4930432K09Rik	inactive: 1.65
GGGAUCCACAAAUAAAAGATT against Klk4	inactive: 2.73
GGACUGAGAAAAUCUUCCGTT against Hpca	inactive: 0.605
GGUGUGGAACGACAAACAGTT against 4732472I07Rik	inactive: 1.73
GGAAUGUAACUGAAAGACUTT against Myo1c	inactive: -0.869
GGUUGACUUAAAUGUCAGGTT against Rxrb	inactive: 0.435
GCAUCAUCUGAUCUGCACGTT against Nkx2-9	inactive: 2.25
GGAACUUAACUUACACAUGTT against Nr2f1	inactive: -1.19
GCUCCUCUCAGGUGUACGATT against BC028440	inactive: 0.657
GGUUCCUAUACCCAACGGUTT against Mrgpra7	inactive: 0.792
GGUGCUAGUGGUGACCAUGTT against Pign	inactive: 2.31
CGAUCGAUGUUAAAUGUAGTT against Nppa	inactive: -2.26

Sequence	z-score
GCUUUGCGCUGCCCUUAUATT against BC024561	inactive: -0.785
CCAGCAAAGACAAGUCUCCTT against Hoxb9	inactive: 0.963
GGUGUUCUUACCUUUUGACTT against Il9r	inactive: 0.404
GGCCUUUCACAAAUUAGCCTT against Dnajb9	inactive: 0.103
GGUGCUGGACGAAAUUGUATT against Arhgdig	inactive: -0.106
GGAGAAAGAGAUCACCAUCTT against Slc8a2	inactive: 0.606
GGCUAAUGCUCCUUCAUGUTT against Myo18a	inactive: -2.42
GGAAUAUACCCUGAAACAUTT against 4921509E07Rik	inactive: -0.406
GGAGAAUCAGUAUUCCAUATT against 9330161C17Rik	inactive: 0.511
GGAUAUCUCGGGUUGAAUUTT against Stk6	inactive: -1.75
GGCUACCAAGCUCCUCUAUTT against Zfyve21	inactive: -1.82
GGUCCUCAUCGAAUUACACTT against Trip10	inactive: -0.458
CCUCAUUCAGAGUAUAUAGTT against E030013G06Rik	inactive: -0.215
GGUAGAGCGCAGAAUUAGATT against 3300001P08Rik	inactive: -1.38
GGACCUCCAGAGCAUACUGTT against Plscr2	inactive: 0.00576
GGGCCACUGUGUAAUUCAATT against Pcdhgc5	inactive: 0.789
GGACCUUUGUAUUUCAUUUTT against Dorz1	inactive: -0.579
GGAUUCUGAAUAUUUGCCATT against Glipr2	inactive: -0.313
GGGAGCAACCGGACAAUAUTT against Spa17	inactive: 0.524
CCACAAAGGAAUUCAUGAGTT against Dhx16	inactive: -0.191
GGCUGACAUAACAUUAAAATT against Bves	inactive: 0.551
GGUCAAGAGUGCCCUAAAATT against Olfr398	inactive: -1.68
CCACACCAGAGGUCUUUGATT against Usmg4	inactive: -3.17
GCGUGUUAGGAAAAACUCUTT against BC027073	inactive: -0.864
GGCAUUUUGAGACUCUACUTT against Crygb	inactive: -0.63
CGGCAGAUUGCUGCUUUGATT against V2r12	inactive: -2.17
CGGGUAUCAUCGAUUAUGGTT against Tnfaip6	inactive: 2.2

Sequence	z-score
GGGAUUCCACGGAUACUGUTT against Rnase13	inactive: 0.81
GGAAUUGAUCACUAACCCUTT against Cd97	inactive: -1.2
GGUAAGAACUGAAAUGCAUTT against Irf4	inactive: 0.889
ACUCAUUACACCCUUACCUTT against LOC381680	inactive: 0.131
GGUAAAGCUGAAGACAAGGTT against Rps2	inactive: -3.26
GGAACGAGAAGAAGAAGAATT against Acin1	inactive: -1.32
GGACCUGCCCAAAUCUGAUTT against Fbxo40	inactive: -0.385
GGUUUACGCAGACUCAAGUTT against Trim14	inactive: -0.117
GGUAUGCCGCUAUCUGUCATT against Olfr99	inactive: -2.96
GGGAAUGCAGCUAGGAAGATT against Paics	inactive: -3.19
CCAGUCACAUGAUCUUCGATT against Car10	inactive: 0.744
CCUCUACAUCCAGGAAUGATT against Map4k1	inactive: -1.23
CCAUAUGGUCAUUAUACCUTT against 2810460C24Rik	inactive: 0.324
GCCUCGAAUGCUAGACUUCTT against Faf1	inactive: -0.722
GGCCUAUCUUGUUUAUUUGTT against Tgtp	inactive: 0.705
GCCGGAUAACAUCAGACACTT against 0610042C05Rik	inactive: 0.392
GGAAAAAUGUAAUAAGCCATT against 2610318G18Rik	inactive: -0.0781
GGACUUGCUAGAUACGAUCTT against Edaradd	inactive: 0.0515
CCAUGCUCUAUCAAUGUUCTT against Sprr3	inactive: 0.853
GGGCAAGUACUUCUCUAGCTT against Cdsn	inactive: 1.32
CCUCCAUUGAUACUCAAGUTT against Pycr1	inactive: 0.708
GGAAACUGGUCCCUAUCAATT against Sp2	inactive: 0.652
GCAAGUAACAAUCGCUUAUTT against 1810073M12Rik	inactive: 0.223
GCAUCAACAUCCAUCUAUCTT against Kctd8	inactive: -0.0646
